Here are results for 1 substance from PMC7082075.

No constants are given. Whether binding was seen depends on the method and setting. A result given as binding can be weak or reduced; the word gives no strength. Tags and fused reporters may be left off the sequences shown.

The experiment addresses T1, MBP-SNX5^PX (UniProt Q9Y5X3).
T1 sequence: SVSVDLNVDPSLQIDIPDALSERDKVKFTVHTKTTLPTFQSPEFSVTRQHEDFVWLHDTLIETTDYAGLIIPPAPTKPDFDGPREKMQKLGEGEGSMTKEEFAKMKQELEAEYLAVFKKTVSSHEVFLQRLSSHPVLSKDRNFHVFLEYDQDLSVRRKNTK
Kind of experiment: pull-down; competition: GST-CI-MPR pull-down of purified MBP-SNX5^PX in the presence or absence of IncE at stated molar ratios; Coomassie staining; both purified.

As to IncE (Chlamydia trachomatis), the binding result is “binds”.
